Results as given in PubChem BioAssay AID720608 (Broad Institute, 2013).
Inconclusive results, whose numbers are uncertain, are shown with a selection of clear calls. Calls of active or inactive are those of the source.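 Rule for the calls: active = compound whose fitted half-maximal concentration stays within twice the top dose, with falling signal, in all three exposure times; inconclusive = mixed calls across exposure times, weak flat curves, or poor fits; inactive = inactive at every exposure time, including opposite-direction effects.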

Assay: cytotoxicity in SR immunoblastic lymphoma cells – cell-based, CellTiter-Glo ATP luminescence, 8-48 h, dry powder, mechanism study for HRAS target identification, late-stage follow-up (AID 720608)
Details: SR lymphoma cells viability; at 35 µM (top of the series)

Compound	activity change, negative = cytotoxicity
Cc1onc(C(=O)N2CCN(C(c3ccncc3)c3ccncc3)CC2)c1[N+](=O)[O-]	inactive: -9.46%
CCC(=O)N(c1ccc(OC)c(Cl)c1)C(C(=O)NCCc1ccccc1)c1cccs1 (configuration not stated)	inconclusive: -25.2%
